Data on 2 molecules can be found in patent US20240068004A1 (MBRACE THERAPEUTICS, published 2024).

Sequences of proteins named here, by UniProt entry; tags and fusion partners are left off. Residues count along the entry.
UniProt G3I8R9, residues 19-654: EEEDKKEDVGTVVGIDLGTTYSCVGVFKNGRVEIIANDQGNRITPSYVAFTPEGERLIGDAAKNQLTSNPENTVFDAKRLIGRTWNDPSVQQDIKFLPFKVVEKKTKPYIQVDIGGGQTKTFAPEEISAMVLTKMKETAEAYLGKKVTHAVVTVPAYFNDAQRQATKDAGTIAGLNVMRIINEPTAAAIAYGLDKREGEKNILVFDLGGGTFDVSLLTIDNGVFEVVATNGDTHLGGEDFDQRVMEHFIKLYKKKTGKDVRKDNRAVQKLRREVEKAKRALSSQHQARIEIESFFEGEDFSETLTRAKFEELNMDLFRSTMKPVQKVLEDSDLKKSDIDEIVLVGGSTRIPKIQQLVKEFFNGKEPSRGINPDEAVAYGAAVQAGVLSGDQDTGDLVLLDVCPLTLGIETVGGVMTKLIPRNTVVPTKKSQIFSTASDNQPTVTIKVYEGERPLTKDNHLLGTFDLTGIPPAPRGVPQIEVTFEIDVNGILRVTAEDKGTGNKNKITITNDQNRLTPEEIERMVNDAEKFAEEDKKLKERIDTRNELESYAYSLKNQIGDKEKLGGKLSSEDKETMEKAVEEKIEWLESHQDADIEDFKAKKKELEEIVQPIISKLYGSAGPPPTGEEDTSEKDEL

This experiment has as its target native GRP78 of the CHO production cells (endoplasmic reticulum protein) (Chinese hamster (CHO cells)) (UniProt G3I8R9). In words: co-purification (co-immunoprecipitation) from CHO supernatant, SDS-PAGE.

These are yes or no findings as the source states them, for the method shown. In cells and extracts the contact can be indirect. Some binding calls cover weakened binding; strength is not graded here.

B1: anti-GRP78 antibody clone F6 (antibody, IgG1, V domains shown)
VH: QVQLQQSGPGLVKPPQTLSLTCAISGDSVSSNSAAWNWIRQSPSRGLEWLGRTYYRSKWYNDYAVSVKSRITINPDTSKNQFSLQLNSVTPEDTAVYYCARDPYYYDSSGYYYFDAFDIWGQGTMVTVSS
VL: SYELTQPHSVSVAPGQTARITCGGDNIGSKSVHWYQQRPGQAPVLVVYDDSDRPSGIPERFSGSNSENTATLTISGVEAGDEADYYCQVWDSTSHHVVFGGGTKLTVL
notes: Fully human mAb formatted as full-length IgG1; also called F6 mAb
For the molecule B1, the binding result is listed as “binds”.

B2: anti-GRP78 antibody clone B4 (antibody, IgG1, V domains shown)
VH: QVRLQESGPGLVKPSQTLSLTCTVSGGSISSGGYYWSWIRQHPGKGLEWIGYIYYSGSTYYNPSLESRVTISVDTSKNQFSLKLSSVTAADTAVYYCARYSSIDAFEIWGQGTMVTVSS
VL: SYVLTQPPSVSVAPGKTATITCGGDDIGSKSVHWYQQKPGQAPVLVVYDDGDRPSGIPERFSGSNSGNTATLAISRVEAGDEADYYCQVWDSSSDQYVFGSGTKLTVL
notes: Fully human mAb formatted as full-length IgG1; also called B4 mAb
On to B2, for which the binding result is given as “binds”.
